Assay results published in US20260000655A1, “PHARMACEUTICAL COMPOSITION FOR USE IN PREVENTION OR TREATMENT OF LIFESTYLE-RELATED DISEASE” (priority 2022, published 2026).

System: high-fat diet-induced obesity model mice
Experiment: Organ weight in mouse
Type: in vivo
Settings: HPH-15 10 or 100 mg/kg, metformin 300 mg/kg, orally once a day 28 days; compared to olive oil
Protocol: The changes in organ weights when HPH-15 was administered were examined.
High-fat diet-induced obesity model mice were prepared in the same manner as in Example 7. Then, HPH-15 (10 mg/kg or 100 mg/kg, […]) dissolved in olive oil or metformin (300 mg/kg, […]) was orally administered once a day for 28 days. Olive oil alone was administered as a control. After 28 days of administration of each, the liver, muscle, subcutaneous fat, and epididymis of the high-fat diet-induced obesity model mice were excised and weighed.

SMILES | epididymis weight | liver weight | muscle weight
CN(C)C(=N)N=C(N)N [metformin, reference compound] | no significant differences were observed | no significant differences were observed | no significant differences were observed
CC(C)(C)SCCNC(=S)c1cccc(C(=S)NCCSC(C)(C)C)n1 [HPH-15] | no significant differences were observed | no significant differences were observed | no significant differences were observed
